Measurements reported in US20170007716A1.
No constants are given. Whether binding was seen depends on the method and setting. Some binding calls cover weakened binding; strength is not graded here.

The chains behind the UniProt entries cited, without tags or fusion partners. Where a name states a change or a piece, a line headed by the entry shows the natural chain unless it says otherwise.
UniProt Q12884: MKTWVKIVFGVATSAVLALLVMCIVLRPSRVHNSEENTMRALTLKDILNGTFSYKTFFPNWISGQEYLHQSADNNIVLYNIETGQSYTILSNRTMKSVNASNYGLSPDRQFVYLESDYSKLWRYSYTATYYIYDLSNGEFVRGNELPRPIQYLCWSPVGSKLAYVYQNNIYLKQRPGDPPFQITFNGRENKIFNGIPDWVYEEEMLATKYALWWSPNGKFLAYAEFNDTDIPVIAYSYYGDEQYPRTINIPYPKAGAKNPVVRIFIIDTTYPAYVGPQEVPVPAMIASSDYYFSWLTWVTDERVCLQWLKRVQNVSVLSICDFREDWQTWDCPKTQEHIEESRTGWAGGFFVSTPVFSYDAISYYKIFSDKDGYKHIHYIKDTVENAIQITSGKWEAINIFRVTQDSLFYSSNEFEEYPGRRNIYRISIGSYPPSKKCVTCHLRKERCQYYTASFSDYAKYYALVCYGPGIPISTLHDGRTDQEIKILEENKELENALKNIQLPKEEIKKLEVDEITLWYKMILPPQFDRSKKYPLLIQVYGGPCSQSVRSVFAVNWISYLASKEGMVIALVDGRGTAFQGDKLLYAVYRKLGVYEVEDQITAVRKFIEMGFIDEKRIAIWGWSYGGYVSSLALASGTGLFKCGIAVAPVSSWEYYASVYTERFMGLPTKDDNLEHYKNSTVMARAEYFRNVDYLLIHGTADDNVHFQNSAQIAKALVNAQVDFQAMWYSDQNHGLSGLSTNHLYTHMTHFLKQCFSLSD

Molecular target: huFAP fusion protein (human) (UniProt Q12884)
Assay: ELISA, huFAP fusion protein

B1: humanized anti-FAP IgG1 hu36 (hu36-IgG1) (antibody, V domains shown)
VH: QVQLVQSGAEVKKPGASVKVSCKASGYTFTENIIHWVRQAPGQGLEWMGWFHPGSGSIKYNEKFKDRVTMTADTSTSTVYMELSSLRSEDTAVYYCARHGGTGRGAMDYWGQGTLVTVSS
VL: DIQMTQSPSSLSASVGDRVTITCRASKSVSTSAYSYMHWYQQKPGKAPKLLIYLASNLESGVPSRFSGSGSGTDFTLTISSLQPEDFATYYCQHSRELPYTFGQGTKLEIKR
- binding: binds
